US20160046678A1 (ZYNGENIA, published 2016)
No constants are given. Whether binding was seen depends on the method and setting. Some results given as binding are weak or reduced against the parent protein; the word gives no strength.

Sequences of proteins named here, by UniProt entry; tags and fusion partners are left off. Residues count along the entry.
UniProt P08069, residues 31-932: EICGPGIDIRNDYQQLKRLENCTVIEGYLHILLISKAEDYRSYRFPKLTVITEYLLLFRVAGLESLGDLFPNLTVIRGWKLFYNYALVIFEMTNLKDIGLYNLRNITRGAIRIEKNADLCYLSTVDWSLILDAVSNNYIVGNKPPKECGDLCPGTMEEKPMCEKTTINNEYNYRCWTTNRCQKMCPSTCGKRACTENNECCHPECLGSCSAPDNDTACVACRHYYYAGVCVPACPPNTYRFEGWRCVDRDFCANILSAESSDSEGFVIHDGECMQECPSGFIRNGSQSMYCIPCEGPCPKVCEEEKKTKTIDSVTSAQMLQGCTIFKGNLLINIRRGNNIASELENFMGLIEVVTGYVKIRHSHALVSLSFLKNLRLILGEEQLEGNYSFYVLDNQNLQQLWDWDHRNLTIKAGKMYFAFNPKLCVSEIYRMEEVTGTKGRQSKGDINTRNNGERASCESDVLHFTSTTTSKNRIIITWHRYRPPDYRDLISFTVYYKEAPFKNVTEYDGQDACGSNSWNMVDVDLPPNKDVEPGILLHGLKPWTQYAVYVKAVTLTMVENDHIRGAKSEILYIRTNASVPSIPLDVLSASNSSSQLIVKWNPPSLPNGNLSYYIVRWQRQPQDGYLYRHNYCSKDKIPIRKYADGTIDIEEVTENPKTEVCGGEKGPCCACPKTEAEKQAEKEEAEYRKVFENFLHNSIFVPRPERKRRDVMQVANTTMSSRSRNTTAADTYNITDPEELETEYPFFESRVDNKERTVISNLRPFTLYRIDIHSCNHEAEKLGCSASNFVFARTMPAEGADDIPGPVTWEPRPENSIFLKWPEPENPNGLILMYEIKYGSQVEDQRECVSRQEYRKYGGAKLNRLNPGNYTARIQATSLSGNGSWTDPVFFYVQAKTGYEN

Molecular target: IGF1R (UniProt P08069)
Assay: MRD identification, Example 48

binding, binds:
LVDICQRQELDFYSCLRSV [IGF1378]
AARWCDMQQHSFYECLQVL [IGF1277]
SWDPCFESDEFHMKLCVLMD [IGF1336]
WLSQCEAKEIDFYMCLAGQAG [IGF1329]
RDRVCHNKTFFHCLFSIFPDG [IGF1287]
PSYHCSNMDYTFYECLMYL [IGF1348]
PSEICITEGLGFYQCLLKL [IGF1365]
GEEVCWVQEPFYSTLCILAF [IGF1354]
LMELCAMDEDYYLWFCRAVE [IGF1360]
TFKDCAHIPGIDFCLWRL [IGF1335]
LEDWCLHLDFYQCLEAV [IGF1331]
GPKECIGVPNFDLCMAML [IGF1330]
LEHLCQTRDGFYELMCTLAL [IGF1276]
VGQMCSMGLELDRMKCNPCY [IGF1376]
NALGCQEEWETLDQCLMRL [IGF1278]
WASTCQQTFYSMNRCLSQW [IGF1356]
AVPKCPGWDFYTALECLSRT [IGF1279]
SAVQCDLRLMCWQLRGPSRP [IGF1364]
ASQTCIGMDFYSGLECLLGW [IGF1281]
EQSYCSQNDMFYDWFCALVS [IGF1349]
LLSECYDKDFYECLGLL [IGF1337]
SVPSCIDYYGDWFLCLAAP [IGF1283]
AAANCHWPDEALQELCRYFA [IGF1339]
SNGSCHIVDFYGWFQCQTSA [IGF1285]
AYDCRKHHMNFYECLTYL [IGF1373]
EPRLCHNYPDFYQCMSFL [IGF1280]
YGLGCSQMDFYQCLDML [IGF1290]
CTATCLEDQGFYWNMCKLVF [IGF1371]
ARCECWESQFYWDLCSLAL [IGF1370]
WVEECHNLHWDLKHCLMHQ [IGF1282]
TGICENPDEFYRQLCLLVE [IGF1340]
AAGSPLDDCYGYTGFYQGMCLLEL [IGF1347]
LTEPCSQHSMFYSMLCELAF [IGF1286]
VDVLCHHVDFYECMDRL [IGF1328]
NNTLCRGVPTFEECVFIL [IGF1284]
NPFWCSWGHQFDNECDSMV [IGF1355]
YIRECHELQNFTEGIHCLVTR [IGF1334]
SLSICTYADFYECMDLL [IGF1333]
WVDKCHQEMMEFHECLKYV [IGF1366]
DVSHCHIMFWDFQQCLEYL [IGF1291]
NPATCYQKSYQFEQCLMYL [IGF1292]
YQDMCEDMSFYECLEVL [IGF1338]
TGSDCYFYKHLYSLCVEVE [IGF1379]
TMPTCEKLNFYECMNLL [IGF1332]
WEHHCRRSHLDFYGCLSSI [IGF1341]
